# This is one part of the list. Shown are side measurements of this screen, not its main read-out; they come without a call. Most of these compounds were active or inconclusive in the main read-out, so they are no random draw. The note in brackets gives the kind of curve behind each potency; many fits are weak.
# Assay: qHTS Assay for Lipid Storage Modulators in Drosophila S3 Cells;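 on cell number change: cells counted by Cell Tracker Red CMTPX staining in the red channel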
# Details: BODIPY lipid droplet fluorescence, 18-24 h; for cell number change: measured here: cell count max response, cells fed with added oleic acid
# Method in brief: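 Drosophila S3 cells got compounds at several concentrations plus oleic acid (400 uM solution). Laser-scanning cytometry with 488 nm excitation read lipid droplets at 500-530 nm and cells at 575-640 nm. Percent activity was relative to 20 uM Triacsin C.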
# [1] = measured here: cell number channel AC50, cells fed with added oleic acid
# [2] = measured here: lipid fluorescence (Fed channel) AC50, cells fed with added oleic acid
Compound,cell number change [%],AC50 [1],AC50 [2]
COc1ccccc1-c1cc(C(=O)NCCN2CCOCC2)no1,39.5,"23100 nM [rising, single point]","25900 nM [rising, single point]"
CCn1c(SCC(=O)N2CCN(c3ccccc3)CC2)nc2c([nH]c3ccccc32)c1=O,-2.55,–,"130 nM [rising, full curve, poor fit]"
O=C(NCC1CCCO1)c1ccccc1-c1nc(-c2ccccc2)no1 (stereo not drawn),-7.43,–,–
O=C(O)c1ccc(C=C(c2nc3ccccc3s2)c2nc3ccccc3s2)cc1,–,–,"6510 nM [falling, single point]"
COc1ccc(NC(=O)COC(=O)COc2cccc3c2OC(C)(C)C3)cc1,-17.3,"58 nM [falling, full curve, poor fit]","259 nM [falling, full curve]"
CCC1CCCCN1c1cc(C)nc2cc(-c3cccc(C)c3)nn12 (stereo not drawn),-42.2,"29100 nM [falling, single point]",–
COc1cc(-c2nnc(SCC#CCO)o2)cc(OC)c1OC,-16.5,"130 nM [rising, full curve, poor fit]","731 nM [rising, single point]"
O=C(Nc1ccc(C(=O)O)cc1)/C(=C\c1ccccc1)NC(=O)c1ccco1,12.2,–,"29100 nM [rising, single point]"
CCOC(=O)c1cnc2c(C)c(C)ccc2c1NCCN1CCOCC1,-13.9,–,–
CC(=O)c1ccc(COC(=O)c2ccccc2NC(=O)C(C)C)cc1,168,–,–
O=c1c2[nH]c3ccc(F)cc3c2ncn1CCCN1CCOCC1,-13.2,–,–
CCCCNCCOCCOc1ccc(F)cc1,-26.3,–,"36600 nM [falling, partial curve]"
CN(C)S(=O)(=O)c1cccc(NC(=S)N/N=C/c2cc(Br)ccc2O)c1,-27.1,–,–
Cc1cccc(N2C(=O)N3[C@H](c4ccc(Br)cc4)[C@@H]4C(=O)N(C(C)(C)C)C(=O)[C@@H]4[C@]3(Cc3ccc(Cl)cc3)C2=O)c1,55.1,"29100 nM [rising, partial curve]","580 nM [falling, full curve]"
COc1ccccc1N1CCN(C(=O)c2cc(-c3ccc(F)cc3)[nH]c2C)CC1,-31.7,"1160 nM [falling, full curve, poor fit]",–
COCCn1c(N)c(C(=O)NS(=O)(=O)c2ccc(C)cc2)c(=O)[nH]c1=O,-23.9,"51.7 nM [falling, full curve, poor fit]",–
Cc1ccc(Cn2c(=O)c3ccccc3n3c(CCC(=O)NCCN4CCOCC4)nnc23)cc1,5.93,"4.11 nM [rising, full curve, poor fit]",–
Cc1cc(=O)n2[nH]c(=O)c(N=Nc3ccccc3)c2[nH]1,15.5,–,"29100 nM [rising, single point]"
CC(=O)Nc1ccc(S(=O)(=O)NCc2ccc(C(=O)NCc3ccc4c(c3)OCO4)cc2)cc1,-19.8,"731 nM [falling, full curve, poor fit]","1840 nM [falling, full curve]"
C#CCn1cc[n+](CC(=O)N(C)C)c1,-31.9,"206 nM [falling, full curve]","3660 nM [falling, full curve]"
CC(=O)Nc1ccc(S(=O)(=O)N2CCC(n3cnc4cc(F)ccc43)CC2)cc1,-8.43,–,"20600 nM [falling, single point]"

Compound,cell number change [%],AC50 [1],AC50 [2]
Cc1cccc(Nc2nnc(SCC(=O)NCc3cccs3)s2)c1,-15.3,–,–
Cc1ccc(C)c(NC(=O)CN(C)C(=O)c2cccc(-n3cccc3)c2)c1,20.5,–,"731 nM [rising, full curve]"
O=C(NCc1ccco1)/C(=C\c1cccc([N+](=O)[O-])c1)NC(=O)c1ccco1,21.5,–,–
CCOC(=O)c1cnc(SCc2nc(N)nc(Nc3ccccc3OC)n2)nc1N,–,–,"23100 nM [rising, single point]"
O=C(Nc1ccn(Cc2ccccc2)n1)c1cccc(F)c1,–,"116 nM [rising, full curve, poor fit]",–
COC(=O)c1ccccc1NC(=O)CSc1nnnn1C1CCCCC1,–,"65.1 nM [rising, partial curve, poor fit]",–
CSc1ccc(/C=C(/NC(=O)c2ccccc2)C(=O)N2CCN(C)CC2)cc1,-9.05,–,–
O=C(Nc1ccon1)C(Sc1ccccc1)c1ccccc1 (stereo not drawn),-5.48,"130 nM [falling, full curve, poor fit]","92 nM [falling, full curve, poor fit]"
CC(=O)Oc1ccc(N2C(=O)CCC2=O)cc1,2.08,–,–
CCNC(=S)N1CCN(S(=O)(=O)c2ccccc2C(F)(F)F)CC1,–,"4.61 nM [falling, full curve, poor fit]","29100 nM [falling, single point]"
C#CCn1ccc(O)c(Cc2ccccc2)c1=O,24.7,–,"92 nM [rising, full curve, poor fit]"
CC(C)[C@H](N[C@@H](C)c1ccccc1)c1c(O)ccc2ccccc12,17.5,–,–
COC(=O)CNC(=O)COC(=O)Cc1ccc(Cl)cc1,-47.2,–,"29100 nM [falling, single point]"
CCCc1c(C(=O)N2CCN(c3ccccc3OC)CC2)cnn1-c1ccccc1,17.7,"411 nM [falling, full curve]","517 nM [falling, full curve]"
CCCCCCSc1nsc(NC(=O)CCC)n1,–,–,"6510 nM [falling, single point]"
COc1cccc(C2CC(=O)Nc3cc(OC)c(OC)c(OC)c32)c1OC (stereo not drawn),-31.1,"1840 nM [falling, full curve, poor fit]","580 nM [rising, single point]"
CC1CCCC(NC(=O)C2CCN(S(=O)(=O)N3CCCCC3)CC2)C1C (stereo not drawn),5.32,–,"103 nM [rising, full curve, poor fit]"
CC(C)CNC(=O)C1CCN(S(=O)(=O)c2ccc(-n3cnnn3)cc2)CC1,30.3,–,–
O=C(C1COc2ccccc2O1)N1CCN(Cc2ccc3c(c2)OCO3)CC1 (stereo not drawn),-6.14,"259 nM [rising, full curve]","184 nM [rising, full curve, poor fit]"
COc1cc(/C=N/Nc2nc(C)cc(C)n2)cc(OC)c1OC,-0.552,–,–
O=C(NCCCN1CCOCC1)c1ccc(Cl)c(S(=O)(=O)N2CCCCCC2)c1,–,–,"32.6 nM [falling, full curve, poor fit]"

# Single records, from the list above:
# `CSc1ccc(/C=C(/NC(=O)c2ccccc2)C(=O)N2CCN(C)CC2)cc1` reads cell number change [%]: -9.05
# `O=C(Nc1ccon1)C(Sc1ccccc1)c1ccccc1` (stereo not drawn) reads cell number change [%]: -5.48; AC50 [1]: 130 nM [falling, full curve, poor fit]; AC50 [2]: 92 nM [falling, full curve, poor fit]
# `O=C(NCc1ccco1)/C(=C\c1cccc([N+](=O)[O-])c1)NC(=O)c1ccco1` reads cell number change [%]: 21.5
# `COC(=O)c1ccccc1NC(=O)CSc1nnnn1C1CCCCC1` reads AC50 [1]: 65.1 nM [rising, partial curve, poor fit]

# Following part.

Compound,cell number change [%],AC50 [1],AC50 [2]
CCOC(=O)Cc1c(C)nc2c(-c3ccccc3)c(-c3ccccc3)[nH]n2c1=O,-31.1,"20600 nM [falling, single point]","3660 nM [falling, partial curve]"
COc1ccc([N+](=O)[O-])cc1NC(=O)CCC(=O)c1cccs1,34.8,"4.11 nM [rising, full curve, poor fit]","231 nM [rising, full curve, poor fit]"
Cc1ccc(N2Cc3ccccc3C2=O)cc1,-5.74,–,"5170 nM [falling, single point]"
CCOC(=O)C(=O)c1cn(C2OCC(OC(C)=O)C(OC(C)=O)C2OC(C)=O)c2ccccc12 (stereo not drawn),6.58,–,"820 nM [falling, single point]"
COc1ccc(NC(=O)c2cc(S(=O)(=O)N3CCCCC3)c[nH]2)cc1,11.1,–,"366 nM [rising, partial curve, poor fit]"
CCN(CC)S(=O)(=O)c1ccc(Cl)c(NC2=NCCCCC2)c1,4.77,–,"92 nM [falling, full curve, poor fit]"
O=C1C2C3CCC(C3)C2C(=O)N1c1ccc2ccccc2c1 (stereo not drawn),14.7,–,"29100 nM [rising, single point]"
Cc1c(Cl)cccc1-n1c(SCC(=O)NCc2cccs2)nnc1-c1ccncc1,-7.51,–,–
CCc1noc(C)c1C(=O)N1CCCC(C(=O)c2ccc(OC)c(F)c2)C1 (stereo not drawn),–,–,"731 nM [falling, single point]"
COc1ccc(S(=O)(=O)NCc2cccnc2)c2ccccc12,7.83,–,–
O=C1N(Cc2ccccc2)c2ccccc2C12OCCO2,4.92,–,"2060 nM [rising, partial curve, poor fit]"
O=C(NCc1ccco1)c1c2c(nc3ccccc13)CCC2,-5.92,–,"1840 nM [rising, partial curve, poor fit]"
Cc1ccc(Cl)cc1N1CCN(C(=O)CCCn2c(=O)c3cccn3c3cccnc32)CC1,-23.2,–,–
COc1ccc(C(=O)C2CCCN(C(=O)c3cnsn3)C2)c(C)c1 (stereo not drawn),11.6,–,"8200 nM [rising, partial curve, poor fit]"
CC(C)c1noc2ncc(C(=O)c3cc(Cl)cc(Cl)c3O)cc12,-11.5,"820 nM [falling, full curve, poor fit]",–
CC(=O)NC(Cc1ccccc1)C(=O)OCC(=O)c1ccc(Br)cc1 (stereo not drawn),-2.69,–,"10300 nM [falling, single point]"
CCc1nnc(NS(=O)(=O)c2ccc(NC(=S)NC(=O)c3ccc(F)cc3)cc2)s1,11.4,–,"23100 nM [rising, single point]"
O=C(CCN1C(=O)/C(=C\C=C\c2ccccc2)SC1=S)Nc1ccc(C(=O)O)cc1,-25,–,"1640 nM [falling, full curve]"
O=C(CCC1CCCC1)Nc1nnc(-c2ccc3c(c2)OCO3)s1,74.3,"164 nM [rising, full curve, poor fit]","11600 nM [rising, partial curve]"
